Values of other authors, collected in patent US8106214B2, “2-imino-4-(thio) oxo-5-polycyclovinylazolines for use as PI3 kinase inhibitors” (Merck Serono SA, priority 2003, dated 2012).

Chains of the proteins cited; added tags and fusions are not shown.
UniProt P68400, whole entry: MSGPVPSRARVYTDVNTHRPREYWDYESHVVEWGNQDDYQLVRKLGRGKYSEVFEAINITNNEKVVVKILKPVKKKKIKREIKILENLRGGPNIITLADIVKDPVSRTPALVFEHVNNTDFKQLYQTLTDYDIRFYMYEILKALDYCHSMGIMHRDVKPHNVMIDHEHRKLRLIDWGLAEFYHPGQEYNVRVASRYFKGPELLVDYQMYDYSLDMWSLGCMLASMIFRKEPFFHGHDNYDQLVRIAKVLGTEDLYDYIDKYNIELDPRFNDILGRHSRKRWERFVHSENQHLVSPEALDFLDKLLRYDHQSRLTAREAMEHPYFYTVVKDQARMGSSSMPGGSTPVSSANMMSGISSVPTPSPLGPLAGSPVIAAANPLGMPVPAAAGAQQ

Biological target: CK2 protein kinase (Homo sapiens, UniProt P68400)
Settings: cited from earlier work

## O=c1cc(N2CCOCC2)oc2c(-c3ccccc3)cccc12 [LY294002]
  IC50: 5 to 10 µM
